Laboratory results: US20160009801A1 (EMORY UNIVERSITY, published 2016)
Substitutions are numbered along the chain they refer to. No constants are given. Whether binding was seen depends on the method and setting. Binding can be weak; no strength is given.

B1: monoclonal antibody 2B9 (antibody, IgG2b, V domains shown)
VH: IQLVQSGPELKKPGETVKISCKASGYTFTDYAMHWVKQAPAKGLKWMGWINTETGEPTYADDFKGRFAFSLETSASTAYLQINNLKNEDTATYFCAGDPLDYWGQGTTLTVSS
VL: DVVVTQTPLSLPVSFGDQVSISCRSSQSLANSYGNTYLSWYLHKPGQSPQLLIYEISNRFSGVSDRFSGSGSGTDFTLKISTIKPEDLGIYYCLQGTHQPWTFGGGTKLEIK
B2: monoclonal antibody 2D2 (antibody, V domains shown)
VH: QIQLVQSGPELKKPGETVKISCKASGYTFTDYAMHWVKQAPAKGLKWMGWINTETGEPTYADDFKGRFAFSLETSASTAYLQINNLKNEDTATYFCAGDPLDYWGQGTTLTVSS
VL: B1 VL
B3: monoclonal antibody 3D1 (antibody, V domains shown)
VH: B2 VH with Y32F, A42R, E73G, Y80F, A97S, G98S
VL: B1 VL with A30T, Y41F, S64P
notes: Mouse hybridoma mAb; also called 3D1.C1; 3D1.E3
B4: monoclonal antibody 1H5 (antibody, IgG3, V domains shown)
VH: EVKLVESGGGLVKPGGSLKLSCAASGFAFSSYDMSWVRQTPEKRLEWVATISSGGSYTFYPESVKGRITVYRDNARNTLYLQMSSLRSEDTALYYCATLHYNYERGAVDYWGQGTSVTVSS
VL: DVVVTQTPSSMYASLGERVSITCKASQDINRYLSWIQQKPGKSPKTLIYRTDRLVEGAPSRFSGSGSGQDYSLTISSLEYEDMGIYNCLQYDEFPVTFGAGTKLEIKR
B5: monoclonal antibody 15C6 (antibody, V domains shown)
VH: QVTLKESGPGILQPSQTLSLTCSFSGFSLSTSNMGVVWIRQSSGKGLEWLLHILWNDGKFYNPALKSRLTISKDTYNNQVFLKIANVDTADTATYYCARLFSTTTSGYFDVWGAGTTVTVSS
VL: DIQMTQSPASLSASVGETVTITCRASGNIHNYLAWYQQKQGKSPQLLVYNAETLADGVPSRFSGSESGTQYSLKINSLQPEDFGTYYCQHFWDTPWTFGGGTKLEIK
notes: Mouse hybridoma mAb; also called 15C6.D3

Molecular target: purified human GPIb-IX complex (human)
Experiment: ELISA on immobilized purified human GPIb-IX

| binding | Binder |
| --- | --- |
| binds | B1 |
| binds | B2 |
| binds | B3 |
| binds | B4 |
| binds | B5 |
